Results: PubChem BioAssay AID248 (DTP/NCI, 2004)
The list is a part of this screen's results and no random one: it gathers tests that were run many times, whatever their T/C, doses with no T/C, and many T/C values between a quarter and a half above the control. Other doses and runs of a compound stand elsewhere. T/C is the treated group as % of the vehicle group. Some doses have a count of surviving animals in place of a T/C: the source files T/C as zero there, which appears to mark a toxic dose or a test without result, not a measured value. Some doses without a T/C left all or most animals alive at the check, yet need not have been tolerated: survival well below the control is almost never listed, so the zero probably covers shortened survival too. Survivors were counted at the toxicity check, usually on the fifth day, unless a day is given; later deaths do not show. Schedules are NCI's codes, read here as Q, the interval in days (D) or hours (H), X, the number of doses. Some schedule codes hold Z or #, which are not explained here. For survival time, the PubChem record calls one and a half times the control and up active, and a quarter to a half above the control has no call in these data; cut-offs in other NCI protocols can differ.

Tested on: L1210 leukemia ip in BDF1 mice, survival T/C
Experiment: NCI In Vivo Anticancer Drug Screen. Data for tumor model L1210 Leukemia (intraperitoneal) in B6D2F1 (BDF1) mice
Settings: T/C endpoint: mean survival time, higher T/C = longer survival
[1] = dose: 100.0 mg/kg/injection, schedule: Q01DX015 (ip), vehicle: saline
[2] = dose: 400.0 mg/kg/injection, schedule: Q01DX009 (ip), vehicle: Klucel (hydroxypropylcellulose) (HPC)
[3] = dose: 120.0 mg/kg/injection, schedule: Q01DX Z (ip), vehicle: saline
[4] = dose: 100.0 mg/kg/injection, schedule: Q01DX009 (ip), vehicle: saline with Tween-80
[5] = dose: 200.0 mg/kg/injection, schedule: Q01DX009 (ip), vehicle: saline with Tween-80
[6] = dose: 60.0 mg/kg/injection, schedule: Q01DX Z (ip), vehicle: saline

In the case of CC(C)C1CCC(NC(=O)NCCF)CC1 (centres undefined), the survivor count (dose: 75.0 mg/kg/injection, schedule: Q01DX001 (ip), vehicle: other) is reported as 0 of 6, the survivor count (dose: 150.0 mg/kg/injection, schedule: Q01DX001 (ip), vehicle: other) is reported as 0 of 6 and the survivor count (dose: 300.0 mg/kg/injection, schedule: Q01DX001 (ip), vehicle: other) is reported as 0 of 6.
For C=C1Sc2ccccc2N1C, the survivor count (dose: 50.0 mg/kg/injection, schedule: Q01DX015 (ip), vehicle: saline) was 2 of 6, the survivor count [1] was 0 of 6 and the survivor count (dose: 200.0 mg/kg/injection, schedule: Q01DX015 (ip), vehicle: saline) was 3 of 6.
With CCCC(=O)C(CC)C(O)(C(F)(F)F)C(F)(F)F (centres undefined) the survivor count (dose: 400.0 mg/kg/injection, schedule: Q01DX009 (ip), vehicle: saline) was 2 of 6.
With CC(=O)Nc1ccc(OC(=O)Nc2ccc(F)c([N+](=O)[O-])c2)cc1 the survivor count [2] was 2 of 6.
c1coc(-c2ncc3cnccn23)c1 was tested, and the survivor count (dose: 200.0 mg/kg/injection, schedule: Q01DX005 (ip), vehicle: saline) was 0 of 4 and the survivor count (dose: 400.0 mg/kg/injection, schedule: Q01DX005 (ip), vehicle: saline) was 0 of 4.
O=C(/C=C\C(=O)Nc1ccc(C2=NCCN2)cc1)Nc1ccc(C2=NCCN2)cc1 was tested, and the survivor count [3] was 1 of 6.
With CN(C)CCC(c1ccccc1)c1nc(N)nc(C(CCN(C)C)c2ccccc2)n1 (centres undefined) the survivor count (dose: 200.0 mg/kg/injection, schedule: Q01DX009 (ip), vehicle: Klucel (hydroxypropylcellulose) (HPC)) was 0 of 6, the survivor count (dose: 200.0 mg/kg/injection, schedule: Q04DX002 (ip), vehicle: Klucel (hydroxypropylcellulose) (HPC)) was 0 of 3 and the survivor count [2] was 0 of 6.
Cc1ccc(C[As](C)(=O)O)cc1 was tested, and the survivor count (dose: 100.0 mg/kg/injection, schedule: Q04DX003 (ip), vehicle: Klucel (hydroxypropylcellulose) (HPC)) was 2 of 6, the survivor count (dose: 200.0 mg/kg/injection, schedule: Q04DX003 (ip), vehicle: Klucel (hydroxypropylcellulose) (HPC)) was 2 of 6 and the survivor count (dose: 400.0 mg/kg/injection, schedule: Q04DX003 (ip), vehicle: Klucel (hydroxypropylcellulose) (HPC)) was 0 of 6.
With NC(N)=N/N=C/c1ccc(F)cc1 the survivor count (dose: 240.0 mg/kg/injection, schedule: Q01DX Z (ip), vehicle: carboxymethylcellulose (CMC)) was 3 of 6 and the survivor count (dose: 480.0 mg/kg/injection, schedule: Q01DX Z (ip), vehicle: carboxymethylcellulose (CMC)) was 0 of 6.
In the case of Nc1ccc(-c2ccc(Nc3cc(S(=O)(=O)O)c(N)c4c3C(=O)c3ccccc3C4=O)cc2)c(S(=O)(=O)O)c1, the survivor count (dose: 75.0 mg/kg/injection, schedule: Q01DX001 (ip), vehicle: saline) is reported as 2 of 6, the survivor count (dose: 150.0 mg/kg/injection, schedule: Q01DX001 (ip), vehicle: saline) is reported as 0 of 6 and the survivor count (dose: 300.0 mg/kg/injection, schedule: Q01DX001 (ip), vehicle: saline) is reported as 0 of 6.
For C[C@@H](N)[C@@H](O)c1ccccc1, the survivor count (dose: 120.0 mg/kg/injection, schedule: Q01DX Z (oral), vehicle: saline) was 3 of 6 and the survivor count (dose: 240.0 mg/kg/injection, schedule: Q01DX Z (oral), vehicle: saline) was 0 of 6.
In the case of CCNc1nc(C)c2nc(C(=O)NCc3ccccc3)c(=O)n(CC)c2n1, the survivor count (dose: 400.0 mg/kg/injection, schedule: Q01DX001 (ip), vehicle: Klucel (hydroxypropylcellulose) (HPC)) is reported as 1 of 3.
With CCC[CH2][Sn]([Cl])([CH2]CCC)[CH2]CCC the survivor count (dose: 8.0 mg/kg/injection, schedule: Q04DX003 (ip), vehicle: saline) was 2 of 6, the survivor count (dose: 16.0 mg/kg/injection, schedule: Q04DX003 (ip), vehicle: saline) was 2 of 6 and the survivor count (dose: 32.0 mg/kg/injection, schedule: Q04DX003 (ip), vehicle: saline) was 1 of 6.
c1cc2c(cc1-c1nnc(-c3ccc4c(c3)OCO4)nn1)OCO2 was tested, and the survivor count (dose: 100.0 mg/kg/injection, schedule: Q01DX001 (ip), vehicle: saline with Tween-80) was 6 of 6 and the survivor count (dose: 200.0 mg/kg/injection, schedule: Q01DX001 (ip), vehicle: saline with Tween-80) was 6 of 6.
CC[n+]1cc(-c2ccc(NC(=O)/C=C\c3ccc(C(=O)Nc4ccc(-c5c[n+](CC)c(N)nc5N)cc4)cc3)cc2)c(N)nc1N was tested, and the T/C (dose: 0.53 mg/kg/injection, schedule: Q01DX009 (ip), vehicle: saline) was 128 % of control, the T/C (dose: 0.8 mg/kg/injection, schedule: Q01DX009 (ip), vehicle: saline) was 130 % of control and the T/C (dose: 1.2 mg/kg/injection, schedule: Q01DX009 (ip), vehicle: saline) was 134 % of control. For the same molecule, the T/C (dose: 1.8 mg/kg/injection, schedule: Q01DX009 (ip), vehicle: saline) was 136 % of control, the T/C (dose: 1.8 mg/kg/injection, schedule: Q01DX015 (ip), vehicle: saline) was 137 % of control and the T/C (dose: 4.1 mg/kg/injection, schedule: Q01DX015 (ip), vehicle: saline) was 138 % of control. For the same molecule, the T/C (dose: 6.2 mg/kg/injection, schedule: Q01DX015 (ip), vehicle: saline) was 147 % of control, the T/C (dose: 22.0 mg/kg/injection, schedule: Q01DX015 (ip), vehicle: saline) was 138 % of control and the survivor count (dose: 35.0 mg/kg/injection, schedule: Q01DX015 (ip), vehicle: saline) was 6 of 6. For the same molecule, the survivor count (dose: 65.0 mg/kg/injection, schedule: Q01DX015 (ip), vehicle: saline) was 6 of 6, the survivor count [1] was 5 of 6 and the survivor count (dose: 400.0 mg/kg/injection, schedule: Q01DX001 (ip), vehicle: saline) was 4 of 4. For the same molecule, the T/C (dose: 235.0 micrograms/kg/injection, schedule: Q01DX009 (ip), vehicle: saline) was 127 % of control and the T/C (dose: 355.0 micrograms/kg/injection, schedule: Q01DX009 (ip), vehicle: saline) was 137 % of control.
In the case of CC(C)(C)C1CCC(=O)CC1, the survivor count (dose: 200.0 mg/kg/injection, schedule: Q04DX002 (ip), vehicle: saline) is reported as 0 of 3 and the survivor count (dose: 400.0 mg/kg/injection, schedule: Q04DX002 (ip), vehicle: saline) is reported as 0 of 3.
In the case of COc1ccc(C(C)C(C)=O)cc1 (centres undefined), the survivor count [4] is reported as 3 of 3 and the survivor count [5] is reported as 3 of 3.
In the case of NC(N)=NCCS(=O)(=O)Nc1ccc(Nc2c3ccccc3nc3cc([N+](=O)[O-])ccc23)cc1, the T/C (dose: 1.5 mg/kg/injection, schedule: Q01DX009 (ip), vehicle: water) is reported as 134 % of control, the T/C (dose: 3.0 mg/kg/injection, schedule: Q01DX009 (ip), vehicle: water) is reported as 147 % of control and the T/C (dose: 6.25 mg/kg/injection, schedule: Q04DX003 (ip), vehicle: water) is reported as 147 % of control. The T/C (dose: 12.5 mg/kg/injection, schedule: Q04DX003 (ip), vehicle: water) was 140 % of control.
CNC/C(Cl)=N/S(=O)(=O)c1ccc(C)cc1 was tested, and the survivor count (dose: 25.0 mg/kg/injection, schedule: Q04DX002 (ip), vehicle: saline with Tween-80) was 3 of 3.
For OC(c1ccccc1)(c1ccccc1)c1ccncc1, the survivor count [4] was 3 of 3 and the survivor count [5] was 3 of 3.
For CC(=O)/C(=N\N=C(N)N)c1ccccc1, the survivor count (dose: 15.0 mg/kg/injection, schedule: Q01DX Z (ip), vehicle: saline) was 0 of 6, the survivor count (dose: 30.0 mg/kg/injection, schedule: Q01DX Z (ip), vehicle: saline) was 0 of 6 and the survivor count (dose: 30.0 mg/kg/injection, schedule: Q01DX Z (oral), vehicle: other) was 4 of 6. The survivor count [6] was 0 of 6 and the survivor count [3] was 0 of 6.
With CCCCCCCCCCCCOc1ccc(/C(=N\N=C(N)N)c2ccccc2)c(O)c1 the survivor count [6] was 6 of 6.
In the case of CCCCNC(C)[C@]1(O)Cc2c(O)c3c(c(O)c2[C@@H](OC2CC(N)C(O)C(C)O2)C1)C(=O)c1c(OC)cccc1C3=O (some centres undefined), the survivor count (dose: 12.5 mg/kg/injection, schedule: Q01DX009 (ip), vehicle: water) is reported as 6 of 6 and the survivor count (dose: 25.0 mg/kg/injection, schedule: Q01DX009 (ip), vehicle: water) is reported as 5 of 6.
CN(C)N=Nc1ccc(Cl)cc1 was tested, and the survivor count (dose: 400.0 mg/kg/injection, schedule: Q01DX001 (ip), vehicle: saline with Tween-80) was 2 of 10.
